Laboratory results: publication PMC4759627
Results are given in words; binding and its absence hold for the method and conditions named. In cells and extracts the contact can be indirect. Some entries that bind do so weakly or less than the wild type. For some of these results: Tags and fused reporters may be left off the sequences shown.

By UniProt entry, the sequences of proteins in these tests, tags left out.
UniProt Q60610: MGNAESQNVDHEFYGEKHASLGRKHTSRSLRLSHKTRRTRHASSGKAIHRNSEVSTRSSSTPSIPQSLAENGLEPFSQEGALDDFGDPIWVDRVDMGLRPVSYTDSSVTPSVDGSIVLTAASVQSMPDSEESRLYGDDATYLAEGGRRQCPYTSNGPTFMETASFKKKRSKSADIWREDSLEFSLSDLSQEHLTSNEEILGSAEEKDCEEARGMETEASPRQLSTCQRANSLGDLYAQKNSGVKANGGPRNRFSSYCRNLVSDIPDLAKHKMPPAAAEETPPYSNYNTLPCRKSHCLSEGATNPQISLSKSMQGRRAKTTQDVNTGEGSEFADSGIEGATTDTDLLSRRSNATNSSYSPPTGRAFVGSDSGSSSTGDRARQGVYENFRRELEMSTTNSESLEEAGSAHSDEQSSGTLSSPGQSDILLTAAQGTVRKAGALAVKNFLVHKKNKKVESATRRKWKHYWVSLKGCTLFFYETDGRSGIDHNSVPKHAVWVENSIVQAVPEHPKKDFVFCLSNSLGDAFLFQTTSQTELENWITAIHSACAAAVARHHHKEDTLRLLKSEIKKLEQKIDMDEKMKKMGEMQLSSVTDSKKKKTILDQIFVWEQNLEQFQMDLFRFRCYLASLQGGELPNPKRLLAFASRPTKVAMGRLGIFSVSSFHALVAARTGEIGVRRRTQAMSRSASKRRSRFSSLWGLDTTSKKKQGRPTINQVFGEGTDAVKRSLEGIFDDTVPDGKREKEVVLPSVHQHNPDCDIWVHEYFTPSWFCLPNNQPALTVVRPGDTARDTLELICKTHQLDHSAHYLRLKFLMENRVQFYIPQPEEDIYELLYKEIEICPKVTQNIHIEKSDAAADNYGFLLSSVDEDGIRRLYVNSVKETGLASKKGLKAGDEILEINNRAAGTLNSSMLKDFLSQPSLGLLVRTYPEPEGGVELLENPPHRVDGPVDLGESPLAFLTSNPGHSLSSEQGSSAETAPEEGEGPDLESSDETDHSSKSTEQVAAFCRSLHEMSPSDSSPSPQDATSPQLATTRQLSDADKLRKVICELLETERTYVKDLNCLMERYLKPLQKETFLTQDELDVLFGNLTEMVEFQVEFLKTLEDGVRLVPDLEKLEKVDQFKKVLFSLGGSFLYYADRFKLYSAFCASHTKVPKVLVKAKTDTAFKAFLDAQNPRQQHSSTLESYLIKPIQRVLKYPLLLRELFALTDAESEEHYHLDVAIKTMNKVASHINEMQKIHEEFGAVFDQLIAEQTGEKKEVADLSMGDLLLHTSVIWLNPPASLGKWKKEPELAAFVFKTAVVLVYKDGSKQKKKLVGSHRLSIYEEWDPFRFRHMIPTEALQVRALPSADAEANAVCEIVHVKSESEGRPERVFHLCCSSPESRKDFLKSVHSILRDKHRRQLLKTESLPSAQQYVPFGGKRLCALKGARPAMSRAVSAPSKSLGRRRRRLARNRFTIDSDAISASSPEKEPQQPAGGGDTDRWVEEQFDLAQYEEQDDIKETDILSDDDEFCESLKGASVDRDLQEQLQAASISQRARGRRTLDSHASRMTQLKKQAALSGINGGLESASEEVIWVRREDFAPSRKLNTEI
UniProt Q8TCU6: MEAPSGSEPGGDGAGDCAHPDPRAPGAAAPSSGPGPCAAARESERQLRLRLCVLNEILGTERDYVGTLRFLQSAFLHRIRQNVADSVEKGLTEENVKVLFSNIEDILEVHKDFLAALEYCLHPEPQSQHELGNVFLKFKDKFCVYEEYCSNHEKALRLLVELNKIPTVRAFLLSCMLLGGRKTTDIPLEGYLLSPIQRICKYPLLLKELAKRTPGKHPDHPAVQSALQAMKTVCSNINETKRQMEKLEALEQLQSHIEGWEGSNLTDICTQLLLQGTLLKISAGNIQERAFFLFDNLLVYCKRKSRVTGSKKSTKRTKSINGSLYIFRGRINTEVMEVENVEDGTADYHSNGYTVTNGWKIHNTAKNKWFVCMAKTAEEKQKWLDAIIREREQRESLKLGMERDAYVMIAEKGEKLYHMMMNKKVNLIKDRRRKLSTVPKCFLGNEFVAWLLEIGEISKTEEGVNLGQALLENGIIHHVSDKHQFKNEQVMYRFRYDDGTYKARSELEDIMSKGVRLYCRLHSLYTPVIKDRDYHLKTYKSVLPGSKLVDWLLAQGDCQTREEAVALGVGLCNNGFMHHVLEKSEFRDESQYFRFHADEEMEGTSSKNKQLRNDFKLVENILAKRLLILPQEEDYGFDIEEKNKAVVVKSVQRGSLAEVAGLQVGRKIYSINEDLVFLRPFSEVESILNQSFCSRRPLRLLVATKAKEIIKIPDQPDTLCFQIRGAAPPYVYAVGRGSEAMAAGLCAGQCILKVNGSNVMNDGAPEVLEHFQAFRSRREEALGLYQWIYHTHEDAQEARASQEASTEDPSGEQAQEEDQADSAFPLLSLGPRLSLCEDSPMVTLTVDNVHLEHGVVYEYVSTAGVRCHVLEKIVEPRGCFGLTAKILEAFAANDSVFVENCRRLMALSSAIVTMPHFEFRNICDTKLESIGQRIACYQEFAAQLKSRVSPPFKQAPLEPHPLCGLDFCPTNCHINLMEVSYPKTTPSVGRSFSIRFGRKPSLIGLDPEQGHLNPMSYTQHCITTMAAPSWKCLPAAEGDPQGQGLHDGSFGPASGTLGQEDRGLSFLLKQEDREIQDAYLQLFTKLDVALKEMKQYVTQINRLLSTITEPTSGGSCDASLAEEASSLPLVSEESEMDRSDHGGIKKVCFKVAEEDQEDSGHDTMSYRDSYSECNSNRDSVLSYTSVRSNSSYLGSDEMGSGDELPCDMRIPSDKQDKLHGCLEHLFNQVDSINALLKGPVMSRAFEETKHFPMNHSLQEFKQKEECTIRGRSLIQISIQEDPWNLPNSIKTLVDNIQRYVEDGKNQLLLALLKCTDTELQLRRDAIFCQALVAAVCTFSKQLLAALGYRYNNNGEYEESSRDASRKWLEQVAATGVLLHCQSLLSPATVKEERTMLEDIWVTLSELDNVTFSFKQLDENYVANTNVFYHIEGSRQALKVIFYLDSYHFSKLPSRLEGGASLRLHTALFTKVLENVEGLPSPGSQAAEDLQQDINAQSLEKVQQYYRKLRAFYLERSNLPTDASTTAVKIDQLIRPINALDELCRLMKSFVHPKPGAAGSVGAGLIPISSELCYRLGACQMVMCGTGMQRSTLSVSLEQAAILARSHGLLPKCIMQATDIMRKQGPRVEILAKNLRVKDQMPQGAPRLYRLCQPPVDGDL

Tests used:
[1] = target: T1, FLAG-tagged full-length FLII (FLII FL) (UniProt Q13045); experiment: co-IP; FLAG immunoprecipitation on anti-FLAG M2 affinity gel from HEK293T lysates co-expressing FLAG-tagged FLII (FL or domain mutants) and a GEF, 75 min at 4 °C, 3xFLAG peptide elution, western blot
T1 sequence: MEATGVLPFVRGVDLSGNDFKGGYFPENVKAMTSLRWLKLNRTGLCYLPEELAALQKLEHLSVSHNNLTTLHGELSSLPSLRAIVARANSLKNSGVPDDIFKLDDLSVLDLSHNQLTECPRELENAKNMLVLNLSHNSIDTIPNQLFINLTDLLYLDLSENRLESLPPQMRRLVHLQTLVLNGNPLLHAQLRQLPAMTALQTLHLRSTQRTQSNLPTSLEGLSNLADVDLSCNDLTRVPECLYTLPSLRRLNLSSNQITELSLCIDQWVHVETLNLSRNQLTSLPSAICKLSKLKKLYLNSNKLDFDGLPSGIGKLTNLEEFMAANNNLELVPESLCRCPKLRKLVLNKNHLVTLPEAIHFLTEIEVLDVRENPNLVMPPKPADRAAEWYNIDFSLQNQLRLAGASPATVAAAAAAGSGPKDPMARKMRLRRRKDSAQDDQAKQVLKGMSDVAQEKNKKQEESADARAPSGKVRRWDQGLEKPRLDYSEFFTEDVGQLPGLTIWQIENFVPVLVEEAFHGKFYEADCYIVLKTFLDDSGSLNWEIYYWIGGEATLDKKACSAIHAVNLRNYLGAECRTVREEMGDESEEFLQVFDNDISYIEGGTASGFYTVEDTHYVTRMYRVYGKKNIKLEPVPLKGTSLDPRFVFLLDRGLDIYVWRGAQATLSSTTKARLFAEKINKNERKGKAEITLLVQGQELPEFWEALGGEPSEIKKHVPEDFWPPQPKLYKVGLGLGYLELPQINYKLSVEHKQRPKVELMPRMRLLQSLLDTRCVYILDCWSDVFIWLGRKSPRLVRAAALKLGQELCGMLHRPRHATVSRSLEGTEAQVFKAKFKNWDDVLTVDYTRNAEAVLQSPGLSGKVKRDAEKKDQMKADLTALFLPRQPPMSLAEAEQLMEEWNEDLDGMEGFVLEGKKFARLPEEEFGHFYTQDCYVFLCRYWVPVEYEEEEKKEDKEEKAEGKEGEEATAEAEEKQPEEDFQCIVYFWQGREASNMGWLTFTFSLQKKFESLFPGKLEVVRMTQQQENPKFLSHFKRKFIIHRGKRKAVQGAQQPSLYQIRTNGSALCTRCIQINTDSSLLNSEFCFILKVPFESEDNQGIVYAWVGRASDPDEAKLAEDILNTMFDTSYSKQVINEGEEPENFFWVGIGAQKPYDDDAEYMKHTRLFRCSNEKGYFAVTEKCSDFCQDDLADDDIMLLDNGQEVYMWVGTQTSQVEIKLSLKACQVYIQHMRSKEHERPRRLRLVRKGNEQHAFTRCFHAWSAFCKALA

[2] = target: T2, FLII, endogenous in MCF7 cells (human (endogenous in MCF7)) (UniProt Q13045); experiment: co-IP; immunoprecipitation of endogenous P-Rex1 or of endogenous FLII from MCF7 lysates with antibody pre-bound to GammaBind G Sepharose beads, western blot
T2 sequence: T1 sequence

[3] = target: T3, FLII, endogenous in CHL1 cells (human (endogenous in CHL1)) (UniProt Q13045); experiment: proximity ligation; Duolink in situ PLA with mouse anti-FLII and rabbit anti-P-Rex1 antibodies on fixed CHL1 cells; control with the FLII antibody only
T3 sequence: T1 sequence

binding [1]	Substance	other results
no binding	Myc-tagged Tiam1 WT (from UniProt Q60610 1-1591)	–
–	P-Rex1, endogenous in MCF7 cells (from UniProt Q8TCU6 1-1659)	binding [2]: binds
–	P-Rex1, endogenous in CHL1 cells (from UniProt Q8TCU6 1-1659)	binding [3]: binds
binds	Myc-tagged P-Rex1 WT (from UniProt Q8TCU6 1-1659)	–
